Results deposited as PubChem BioAssay AID504764 (Drosophila RNAi Screening Center, 2011)
Test: 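Genome-wide screen for regulators of Notch-driven gene expression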 (primary screen). Cells: Drosophila Kc167 cells. Reagent: long dsRNA against Drosophila genes. Time to read-out: about 5 days (4 days dsRNA, then 24 h after transfection). Challenge: transfection of constitutively active membrane-tethered Notch lacking the extracellular domain, read 24 h later. Detection: 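Light from a Notch-responsive E(spl)m3 luciferase reporter under active Notch, with control-promoter and no-Notch reporter wells to normalise; raw counts from paired wells a and b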. Scale: induced reporter light, run 1, well a and induced reporter light, run 1, well b: higher = more light from the Notch target reporter with active Notch; control promoter light, run 1, well a and control promoter light, run 1, well b: higher = more light from the viral control promoter (cell number, transfection, viability); uninduced reporter light, run 1, well a: higher = more light from the Notch target reporter without active Notch. Call rule: 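Wells with low control signal or poorly matching duplicates excluded; duplicates averaged; per source plate, z beyond ±2 for induced/control log2 ratio or beyond ±1.8 for induced/uninduced marks a hit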. Calls: active = modifier hit (raised or lowered Notch signal); inactive = not a hit.
In all, the deposit lists about 22,000 reagents; below is an unselected part of those that have a named target and a result. Over the whole deposit, 403 (1.9%) are marked active. 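Unnormalised raw counts per well; ratio z-scores behind the hit calls and whether each hit raises or lowers signal are not deposited.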 A number with no mark means an inactive call. The record does not give: the amount of reagent.

Against Tim17a1 [DRSC14184], the values are induced reporter light, run 1, well a = 69705; induced reporter light, run 1, well b = 84785; control promoter light, run 1, well a = 72370; control promoter light, run 1, well b = 62045; uninduced reporter light, run 1, well a = 5405. For CG1847 [DRSC19810], the values are induced reporter light, run 1, well a = 2.07e5; induced reporter light, run 1, well b = 2.16e5; control promoter light, run 1, well a = 2.35e5; control promoter light, run 1, well b = 2.01e5; uninduced reporter light, run 1, well a = 13365. Dys (Dystrophin) [DRSC13360] scored induced reporter light, run 1, well a = 1.18e5; induced reporter light, run 1, well b = 1.14e5; control promoter light, run 1, well a = 1.55e5; control promoter light, run 1, well b = 1.33e5; uninduced reporter light, run 1, well a = 12292. Knock-down of Dys (Dystrophin) [DRSC13364] resulted in: induced reporter light, run 1, well a = 58835; induced reporter light, run 1, well b = 53460; control promoter light, run 1, well a = 74790; control promoter light, run 1, well b = 71475; uninduced reporter light, run 1, well a = 8795. With knock-down of Dys (Dystrophin) [DRSC15260], the screen gave induced reporter light, run 1, well a = 1.82e5; induced reporter light, run 1, well b = 1.60e5; control promoter light, run 1, well a = 2.05e5; control promoter light, run 1, well b = 2.09e5; uninduced reporter light, run 1, well a = 12160. After knock-down of Dys (Dystrophin) [DRSC16218], the record shows induced reporter light, run 1, well a = 2.09e5; induced reporter light, run 1, well b = 2.06e5; control promoter light, run 1, well a = 2.23e5; control promoter light, run 1, well b = 2.12e5; uninduced reporter light, run 1, well a = 14840.

Dys (Dystrophin) [DRSC16219] showed induced reporter light, run 1, well a = 1.65e5; induced reporter light, run 1, well b = 1.56e5; control promoter light, run 1, well a = 1.90e5; control promoter light, run 1, well b = 1.74e5; uninduced reporter light, run 1, well a = 12870. After knock-down of Dys (Dystrophin) [DRSC16220], the record shows induced reporter light, run 1, well a = 1.68e5; induced reporter light, run 1, well b = 1.50e5; control promoter light, run 1, well a = 1.99e5; control promoter light, run 1, well b = 1.91e5; uninduced reporter light, run 1, well a = 12680. With knock-down of Dys (Dystrophin) [DRSC16935], the screen gave induced reporter light, run 1, well a = 1.92e5; induced reporter light, run 1, well b = 1.68e5; control promoter light, run 1, well a = 2.33e5; control promoter light, run 1, well b = 1.77e5; uninduced reporter light, run 1, well a = 14955. Silencing of CG13676 [DRSC10035] came out at: induced reporter light, run 1, well a = 3.04e5; induced reporter light, run 1, well b = 2.32e5; control promoter light, run 1, well a = 4.31e5; control promoter light, run 1, well b = 2.63e5; uninduced reporter light, run 1, well a = 15410. After knock-down of rod (rough deal) [DRSC17047] the results were induced reporter light, run 1, well a = 1.88e5; induced reporter light, run 1, well b = 1.51e5; control promoter light, run 1, well a = 2.34e5; control promoter light, run 1, well b = 2.21e5; uninduced reporter light, run 1, well a = 10920. Against CG42402 [DRSC21116] the deposit lists induced reporter light, run 1, well a = 71900; induced reporter light, run 1, well b = 87995; control promoter light, run 1, well a = 74335; control promoter light, run 1, well b = 1.04e5; uninduced reporter light, run 1, well a = 10120.
